## Melanoma cell counts after drug treatment

Every entry is a combination with erlotinib at 4 µM: C#Cc1cccc(Nc2ncnc3cc(OCCOC)c(OCCOC)cc23)c1

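Human melanoma cells were exposed to a pair of drugs for 72 h in 1,536-well plates and read by automated microscopy after fixing and staining. The read-out is cell count (nuclei) in % of the DMSO control; lower values mean stronger growth inhibition or killing. Every drug was used at one fixed concentration, the higher of two screened. No replicate spread is given; individual values may be noisy.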
An unselected part of the screen is shown.

| Partner | COLO 792 | COLO 829 | COLO 800 | WM3619 | C32 | WM451Lu |
|---|---|---|---|---|---|---|
| COc1cc([C@@H]2c3cc4c(cc3[C@@H](O[C@@H]3O[C@@H]5CO[C@@H](C)O[C@H]5[C@H](O)[C@H]3O)[C@H]3COC(=O)[C@H]23)OCO4)cc(OC)c1O at 0.1 µM | 50.0 | 77.9 | 92.5 | 59.7 | 83.9 | 80.3 |
| COc1cc(N2CCC(N3CCN(C)CC3)CC2)ccc1Nc1ncc(Cl)c(Nc2ccccc2S(=O)(=O)C(C)C)n1 at 0.4 µM | 52.6 | 76.1 | 64.9 | 63.0 | 71.1 | 63.2 |
| Cn1cnc2c(F)c(Nc3ccc(Br)cc3Cl)c(C(=O)NOCCO)cc21 at 0.075 µM | 34.4 | 71.8 | 109 | 53.8 | 78.4 | 56.5 |
| COc1cc2ncnc(Nc3ccc(Oc4ccccc4)cc3)c2cc1OC at 10 µM | 44.8 | 77.9 | 107 | 68.8 | 92.2 | 73.8 |
| O=C(O)c1ccc(-c2c[nH]c3ncc(-c4ccccc4)cc23)cc1C1CCCC1 at 0.8 µM | 54.9 | 74.2 | 47.1 | 81.5 | 107 | 80.1 |
| C[C@]1(O)C[C@@H](c2nc(-c3ccc4ccc(-c5ccccc5)nc4c3)c3c(N)nccn32)C1 at 2 µM | 55.6 | 86.8 | 33.0 | 72.9 | 104 | 96.7 |
| O=C(O)[C@@H]1[O][Sb](=[O])([O][Sb]2(=[O])[O][C@H]([C@H](O)CO)[C@H](O)[C@H](C(=O)O)[O]2)[O][C@H]([C@H](O)CO)[C@@H]1O (some centres not stated) at 10 µM | 43.9 | 52.3 | 55.2 | 106 | 97.2 | 94.9 |
| Nc1ccn([C@@H]2O[C@H](CO)[C@@H](O)C2(F)F)c(=O)n1 at 0.002 µM | 38.2 | 41.3 | 25.6 | 50.6 | 82.7 | 46.5 |
| N.N.[Cl][Pt][Cl] at 8 µM | 85.8 | 102 | 63.6 | 84.0 | 109 | 120 |
| CC1(C)NC(=O)N(c2ccc([N+](=O)[O-])c(C(F)(F)F)c2)C1=O at 5 µM | 52.1 | 71.2 | 74.3 | 84.9 | 102 | 83.3 |
| COc1ccc(COc2ccc(Cc3cnc(N)nc3N)cc2OC)cc1 at 5 µM | 59.8 | 94.9 | 50.2 | 71.5 | 81.0 | 95.3 |
| C[C@@H](Oc1cc(-c2cnn(C3CCNCC3)c2)cnc1N)c1c(Cl)ccc(F)c1Cl at 1 µM | 50.1 | 73.7 | 187 | 65.6 | 81.7 | 86.6 |
| C=CCNC1=C2C[C@@H](C)C[C@H](OC)[C@H](O)[C@@H](C)/C=C(\C)[C@H](OC(N)=O)[C@@H](OC)/C=C\C=C(/C)C(=O)NC(=CC1=O)C2=O at 0.01 µM | 24.7 | 60.7 | 91.2 | 62.7 | 13.1 | 66.2 |
| O=c1cc(-c2cccc3c2Sc2ccccc2S3)oc(N2CCOCC2)c1 at 5 µM | 53.0 | 88.4 | 69.1 | 73.4 | 85.2 | 102 |
| CN(NC(=O)CC(=O)NN(C)C(=S)c1ccccc1)C(=S)c1ccccc1 at 0.03 µM | 15.4 | 57.6 | 10.2 | 7.0 | 34.2 | 68.1 |
| O=C(Nc1cccc(Cl)c1)Nc1ncc(CCNc2ncnc3ccsc23)s1 at 0.004 µM | 22.8 | 48.8 | 39.9 | 78.2 | 64.1 | 48.6 |
| COC(=O)c1sccc1S(=O)(=O)Nc1ccc(Nc2ccccc2)cc1OC at 5 µM | 51.4 | 79.3 | 99.1 | 80.9 | 106 | 87.2 |
| C[C@@H]1CCN(C(=O)CC#N)C[C@@H]1N(C)c1ncnc2[nH]ccc12 at 5 µM | 55.7 | 93.9 | 111 | 77.2 | 104 | 91.5 |
| CCCS(=O)(=O)Nc1ccc(F)c(C(=O)c2c[nH]c3ncc(Cl)cc23)c1F at 0.4 µM | 56.0 | 61.4 | 97.1 | 79.4 | 84.3 | 61.9 |
| Cc1cc(SCc2sc(-c3ccc(C(F)(F)F)c(F)c3)nc2C)ccc1OCC(=O)O at 10 µM | 65.9 | 80.5 | 113 | 79.1 | 94.8 | 77.5 |
| C[As](C)SC[C@H](NC(=O)CC[C@H](N)C(=O)O)C(=O)NCC(=O)O at 2 µM | 40.6 | 67.4 | 60.3 | 80.7 | 103 | 70.3 |
| N#CC[C@H](C1CCCC1)n1cc(-c2ncnc3[nH]ccc23)cn1 at 5 µM | 44.2 | 78.8 | 126 | 64.7 | 91.7 | 92.5 |
| OCCn1cc(-c2cnc3nnn(Cc4ccc5ncccc5c4)c3n2)cn1 at 5 µM | 51.8 | 89.8 | 73.0 | 71.0 | 97.6 | 104 |

Repeated from the top, 3 entries:

Partner	COLO 792	COLO 829	COLO 800	WM3619	C32	WM451Lu
COc1cc([C@@H]2c3cc4c(cc3[C@@H](O[C@@H]3O[C@@H]5CO[C@@H](C)O[C@H]5[C@H](O)[C@H]3O)[C@H]3COC(=O)[C@H]23)OCO4)cc(OC)c1O at 0.1 µM	50.0	77.9	92.5	59.7	83.9	80.3
COc1cc(N2CCC(N3CCN(C)CC3)CC2)ccc1Nc1ncc(Cl)c(Nc2ccccc2S(=O)(=O)C(C)C)n1 at 0.4 µM	52.6	76.1	64.9	63.0	71.1	63.2
Cn1cnc2c(F)c(Nc3ccc(Br)cc3Cl)c(C(=O)NOCCO)cc21 at 0.075 µM	34.4	71.8	109	53.8	78.4	56.5

Values as published with doi:10.1371/journal.pone.0140310, rounded.